Results: article PMC4624765, “C-di-GMP Regulates Motile to Sessile Transition by Modulating MshA Pili Biogenesis and Near-Surface Motility Behavior in Vibrio cholerae” (PLoS Pathogens, 2015)

Biological target: T1, CdgJ (Vibrio cholerae) (UniProt Q9KVK6)
T1 sequence: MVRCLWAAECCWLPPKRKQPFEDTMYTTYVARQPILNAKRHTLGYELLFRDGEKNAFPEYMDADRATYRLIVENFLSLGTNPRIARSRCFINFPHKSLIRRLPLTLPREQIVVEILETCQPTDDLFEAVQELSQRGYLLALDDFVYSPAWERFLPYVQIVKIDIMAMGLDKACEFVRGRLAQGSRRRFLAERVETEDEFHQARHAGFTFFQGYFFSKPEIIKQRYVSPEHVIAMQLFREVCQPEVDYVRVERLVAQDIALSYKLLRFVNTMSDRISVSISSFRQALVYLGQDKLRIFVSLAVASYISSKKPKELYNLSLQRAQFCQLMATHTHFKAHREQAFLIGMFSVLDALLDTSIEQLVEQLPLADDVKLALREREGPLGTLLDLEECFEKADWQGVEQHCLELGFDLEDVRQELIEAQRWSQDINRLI
Experiment: two-hybrid; Bacterial Adenylate Cyclase Two-Hybrid System (BACTH), Euromedex; no further conditions told

Substance | binding
CdgD (Vibrio cholerae) (enzyme) | no binding
CdgH (Vibrio cholerae) (enzyme) | no binding
CdgK (Vibrio cholerae) (enzyme) | no binding
CdgL (Vibrio cholerae) (enzyme) | no binding
MshE (Vibrio cholerae) (enzyme) | no binding
PilT (Vibrio cholerae) (enzyme) | no binding

No constants are given. Whether binding was seen depends on the method and setting.
